# Screen size: about 52,000 sequences; about 210 (0.4%) were called active.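 The calls were made as follows: active = gene whose silencing raises cell survival under the drug, median off-target-corrected z-score across its silencing RNAs 2 or more; inactive = the rest.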 The list shows a part of the results.
# Assay: Resistance to Poly (ADP-Ribose) Polymerase inhibitor: Gene Identification via Genome-wide siRNA Screen
# Conditions: mouse BRCA2 R2336H ES cells, olaparib, CellTiter-Glo viability; stronger effect = higher value
# How it was run: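 Mouse BRCA2 R2336H ES cells were reverse-transfected with siRNA (20 nM final), treated at 48 h with 500 nM olaparib, and read by CellTiter-Glo after 72 h. Scores: MAD-based z per siRNA, median per gene, seed off-target correction.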
row,Sequence,z-score
1,GGAAAUUCAAAAGACGCAGTT against Orm2,inactive: 0.966
2,CGAGCUUCGGAGGAAGUGATT against B130055L09Rik,inactive: -0.998
3,GGAACUUGAAAUCGUAAUUTT against 2010012C16Rik,inactive: -0.433
4,GCAAGCCAAAUUGUCCCGGTT against Usp39,inactive: 1.89
5,GGUAUUGAUGCCAAAUUAATT against Plekha5,inactive: 0.35
6,GGAACAAAUUAGAAUAGCUTT against Rnf11,inactive: 0.416
7,GGACAACAUUGACAAGUUCTT against Clcn7,inactive: -0.436
8,GGUCUUUUGGAAUCUCUGGTT against Crip3,active: 1.26
9,GGCCAGUUACUUUCUGAAATT against 1110019I14Rik,inactive: 1.21
10,GGAGGUUCGGCUAAAACUGTT against BC005624,inactive: -0.664
11,GGAUGUGACAUGAAUCCUGTT against 8430438L13Rik,inactive: 1.24
12,GGAGUUAAAACCAUCGUGATT against D16Ertd472e,inactive: 0.636
13,GGACGAAUUUGAGGAAAUATT against Lrp4,inactive: -1.81
14,GUAACCAGUUCUUCUCUGUTT against V1rc18,inactive: -1.61
15,GGCAACUGAAAUGUUUGUUTT against Rap2c,inactive: 0.0562
16,GGAGAGGUAGACUUCCUGUTT against BC030396,inactive: 1.89
17,GGAAAAUCUUCUAUCGAACTT against BC012016,inactive: -0.0839
18,GGGAAAUAACGAAUUUCAGTT against Zfp292,inactive: -0.131
19,GGAUGCAAUGGCUGAGAAGTT against Pth,inactive: -1.34
20,CCAUUCACAUUGUGUCAAATT against 2310002B14Rik,inactive: 0.035
21,GGAAUUUGUGAUCAGCGACTT against Cotl1,inactive: 0.356
22,GGAGCUAUGCAGAGGAGUATT against BC019755,inactive: 0.432
23,GCUCUUCAACGAUUGUGGGTT against Clcn4-2,inactive: 0.589

row,Sequence,z-score
1,GCACAUAGCCGACACCUACTT against 2700067E09Rik,inactive: 1.06
2,GCGCGCAGUGAACGAAAAATT against Nmyc1,inactive: -0.186
3,GGUGAAGUAUGGCAACAUGTT against Unc93b,inactive: -0.24
4,CCGCCAUAGGCUCCUUCAATT against Acat3,inactive: 0.0301
5,GUACUCUUCCUCACUGGGUTT against A230078I05Rik,inactive: 0.861
6,CCACAUAAGUGGCUUAUCATT against Slc35d2,inactive: 1.61
7,GGCAUGACUUCAUCGAGACTT against Kua,inactive: 0.0577
8,GGAGAUUUCUUCCAUGGUCTT against Hspa2,inactive: -0.265
9,GGAGAUGUGUGCUAUGUGGTT against Gzmb,inactive: -1.14
10,GGUUAUCAAGAUUGCAUGUTT against Olfr853,inactive: 0.0966
11,CGGAAGCCUCCACAAAUAATT against Apba1,inactive: -2.8
12,GGUUUCGGUGGAAGUCGUATT against AI480556,inactive: -0.603
13,AGGAAACAGCACCUUGUUGTT against Olfr205,inactive: 0.994
14,CCUUUGGCAACAUCGUUUATT against Arrdc4,inactive: -0.137
15,CCACUAUCAUUAUUUAUGCTT against A630026F04,inactive: 0.0993
16,GCAGCUACUACACCAACCATT against Dlx2,inactive: 0.511
17,GGAACAUCCAUGUAUUCAATT against Ube2l3,inactive: 3.63
18,GGGCCUCUUCAUCUUUCUCTT against E230012M21,inactive: 0.587
19,GGGUUAUCUCUUAAUGGCATT against Fundc1,inactive: 3.26
20,GGUGGGCUUUCAGUGCUACTT against BC005764,inactive: -0.928
21,GGUCACUUCAUCCAUAGCUTT against BC060631,inactive: 0.547
22,GGCGGUGAAGUCUAAGGCATT against Hist1h1b,inactive: -0.72
23,GGUGACUAGGAAGAACACGTT against 2310004K06Rik,inactive: 0.174

# Six entries from above, with tabs:
row	Sequence	z-score
1	GCACAUAGCCGACACCUACTT against 2700067E09Rik	inactive: 1.06
4	CCGCCAUAGGCUCCUUCAATT against Acat3	inactive: 0.0301
11	CGGAAGCCUCCACAAAUAATT against Apba1	inactive: -2.8
12	GGUUUCGGUGGAAGUCGUATT against AI480556	inactive: -0.603
13	AGGAAACAGCACCUUGUUGTT against Olfr205	inactive: 0.994
17	GGAACAUCCAUGUAUUCAATT against Ube2l3	inactive: 3.63

# More entries follow.

row,Sequence,z-score
1,GGUUUUGGUAUCUCCAUGGTT against Olfr2,inactive: 0.121
2,GGGUCUUUGUCAGACAAGCTT against Sftpc,inactive: 0.37
3,CCAUGCUAUUCUGGUUUCATT against Tas2r138,inactive: -0.612
4,GGUUGAGUGUCUUUUCUGCTT against Krt1-4,inactive: -0.743
5,GGUUUGCCUAUUUUUUCUUTT against Rg9mtd1,inactive: 1.16
6,CCCAAACGUGGAAGGACCUTT against Sgk2,inactive: -0.248
7,GCUGUUAGACCUCUUGAUUTT against Olfr1164,inactive: 0.111
8,GUGCAAGGUGUAUGAAUCUTT against Cldn5,inactive: 3.3
9,GCGGCUAAUUUGCACUCGUTT against Jtb,inactive: -1.9
10,CCAUACGAAAAAAACUGUCTT against Nfasc,inactive: 0.491
11,CGAAAUCGCGUUAUUUUCUTT against Rora,inactive: 0.363
12,CCCUUGAGUCAUUCUCUAATT against Gsto1,inactive: -0.252
13,GGAAGUAGGAUAUUUACACTT against Mg29,inactive: 1.16
14,CCUUUAGUGUGGGUUUAUUTT against Mcm10,inactive: 0.833
15,CCACUAUCGCAUACAGCAATT against Olfr215,inactive: 0.803
16,GGCCUCAAGAGCAAUACGUTT against Gm1008,inactive: -0.0922
17,GGAAGUAUAAGUGAGCAGATT against Dbnl,inactive: -0.312
18,GGAAGACACACAGUACAUGTT against Rfx2,inactive: 1.82
19,GGCAGAAUAUGUCAACUCGTT against Ddx31,inactive: 0.394
20,GGCACUACGUGAUGUAUUATT against Tle1,inactive: -0.0622
21,GGAUACUUAGUCUUGAAUCTT against 2410017I18Rik,inactive: 0.881

# — PubChem BioAssay AID1347423 (Functional Genomics Laboratory (NCATS/FGL), 2020)
